From patent US9872495B2, “Peptoid oligomers, pharmaceutical compositions and methods of using the same” (priority 2009, dated 2018)
≈ marks a conversion by molar mass, not a printed value. Like-named read-outs stand apart in the source and are kept apart here. At least one peptide structure holds a part that was inferred or is arguable (an end, a ring closure or a residue). Square brackets hold non-standard residues; d marks the D form. Peptide text beside a SMILES is read from it. Gly(N(CH2)3NH2) = NCCCNCC(=O)O; Nphe = O=C(O)CNCc1ccccc1; Orn = NCCC[CH](N)C(=O)O

Assays:
[1] = test system: Escherichia coli ATCC 25922; type: cell-based; details: E. coli ATCC 25922
Description: (§1) Antimicrobial activity was tested against the gram-negative strain Escherichia coli ATCC 25922, and […] strains Staphylococcus aureus ATCC 25923, and Bacillus subtilis ATCC 6633, according to the guidelines given in the document […]-A7 of the CLSI (Clinical and Laboratory Standards Institute; Clinical and Laboratory Standards Institute. Methods for Dilution Antimicrobial Susceptibility Tests for Bacteria That Grow Aerobically-Seventh Edition: Approved Standard CLSI document […]-A7. CLSI, Wayne, USA, 2006). This reference is incorporated herein in its entirety. Hemolytic activity was tested against fresh human erythrocytes.

[2] = test system: Bacillus subtilis ATCC 6633; type: cell-based; details: B. subtilis ATCC 6633
Description: as §1

[3] = test system: Staphylococcus aureus ATCC 25923; type: cell-based; details: S. aureus ATCC 25923
Description: as §1

[4] = test system: MSSA (methicillin-sensitive) and MRSA (methicillin-resistant) S. aureus strains; type: cell-based, Staphylococcus aureus; details: clinical, community-acquired, and hospital strains
Description: Experimental Design: • Twelve strains of MSSA (methicillin-sensitive) and MRSA (methicillin-resistant) S. aureus were cross-tested against two antibacterial peptoid oligomers.
[drawing 50] • Testing was accomplished with 96-well plates wherein each well contained LB media, the S. aureus strain, and a solution of the compound in ethanol at a specific concentration. • A twofold serial dilution of each compound was accomplished with pure ethanol starting from 0.5 mg/mL to 0.0039 mg/mL. • To determine the appropriate concentration of the bacterial strain for each well, the previously grown (overnight in LB media) cultures were diluted with LB media until the optical density at 595 nm (OD595˜OD600) was ˜0.005. • Each experiment was conducted in triplicate, e.g. testing of “Newman” S. aureus strain against a specific concentration of C(NapNdp)3 was replicated in three wells. • Control experiments were also conducted in absence of the compound, i.e. the plates contained only the bacterial strain, LB media, and ethanol. • The plates were incubated and gently shaken overnight (20 hours) at 37° C., and OD595 was read before (t=0) and after (t=20) incubation.
Specifically, along a dilution sequence, the well with the least OD595 after subtraction was determined to be the MIC.

Question: For `NCCCN1CC(=O)N(Cc2ccccc2)CC(=O)N(CCCN)CC(=O)N(Cc2ccccc2)CC(=O)N(CCCN)CC(=O)N(Cc2ccccc2)CC(=O)N(CCCN)CC(=O)N(Cc2ccccc2)CC1=O` [Compound 24, C(NapNpm)4] (cyclo([Nphe][Gly(N(CH2)3NH2)][Nphe][Gly(N(CH2)3NH2)][Nphe][Gly(N(CH2)3NH2)][Nphe][Gly(N(CH2)3NH2)])), which “MIC E. coli” value [1] is on record?
Answer: The value was 31.3 µg/mL (≈ 29.9 µM).

Question: What about the “MIC B. sub” value ([2]; listed as Cyclic (NapNpm)4) of the same compound?
Answer: Its value is 2.0 µg/mL (≈ 1.91 µM).

Question: And the “MIC S. aureus” value [3]?
Answer: Its value is 31.3 µg/mL (≈ 29.9 µM).

Question: For `NCCCN1CC(=O)N(CC(c2ccccc2)c2ccccc2)CC(=O)N(CCCN)CC(=O)N(CC(c2ccccc2)c2ccccc2)CC(=O)N(CCCN)CC(=O)N(CC(c2ccccc2)c2ccccc2)CC1=O` [Compound 20, C(NapNdp)3], which “activity across strains of Staphylococcus aureus (in words)” value [4] is on record?
Answer: The value was “active”.

Question: Which results are given for `CC(C)C[C@@H]1NC(=O)[C@H](CCCN)NC(=O)[C@H](C(C)C)NC(=O)[C@@H]2CCCN2C(=O)[C@@H](Cc2ccccc2)NC(=O)[C@H](CC(C)C)NC(=O)[C@H](CCCN)NC(=O)[C@H](C(C)C)NC(=O)[C@@H]2CCCN2C(=O)[C@@H](Cc2ccccc2)NC1=O` [Compound 17, Gramicidin S, reference compound] (cyclo(FPV[Orn]LFPV[Orn]L); configuration not given here)?
Answer: MIC E. coli [1]: 15.6 µg/mL (≈ 13.7 µM); MIC B. sub [2]: 2.0 µg/mL (≈ 1.75 µM); MIC S. aureus [3]: 15.6 µg/mL (≈ 13.7 µM)

Question: How did the “MIC E. coli” value [1] turn out when `NCCCN1CC(=O)N(Cc2ccccc2)CC(=O)N(CCCN)CC(=O)N(Cc2ccccc2)CC(=O)N(CCCN)CC(=O)N(Cc2ccccc2)CC(=O)N(CCCN)CC(=O)N(Cc2ccccc2)CC(=O)N(CCCN)CC(=O)N(Cc2ccccc2)CC1=O` [Compound 25, C(NapNpm)5] (cyclo([Nphe][Gly(N(CH2)3NH2)][Nphe][Gly(N(CH2)3NH2)][Nphe][Gly(N(CH2)3NH2)][Nphe][Gly(N(CH2)3NH2)][Nphe][Gly(N(CH2)3NH2)])) was run?
Answer: Its value is 7.8 µg/mL (≈ 5.97 µM).

Question: And the “MIC B. sub” value [2]?
Answer: Its value is 0.5 µg/mL (≈ 0.383 µM).

Question: And the “MIC S. aureus” value [3]?
Answer: The value was 7.8 µg/mL (≈ 5.97 µM).
